These are yes or no findings as the source states them, for the method shown. Binding seen in cells or lysates may run through a third protein. A yes stands for co-enrichment or nearness to the bait. Other partners may have been found. For some of these results: Where a sequence is shown, tags or fusion partners need not be part of it. One block for each molecule: values may come before it.
Key:
[1] = biological target: T1, glutathione-S-transferase (GST)-tagged TOPK protein (UniProt Q96KB5); assay: affinity purification with mass spectrometry; TOPK captured by an anti-GST antibody immobilised on a CM5 chip (Biacore T200); KYSE510 cell lysate flowed over at 10 μL/min for 5 min in 1X kinase buffer, pH 7.2; captured proteins recovered and identified by LC-ESI-MS/MS; proteins with a score higher than 25 chosen; control without TOPK; only the target purified
T1 sequence: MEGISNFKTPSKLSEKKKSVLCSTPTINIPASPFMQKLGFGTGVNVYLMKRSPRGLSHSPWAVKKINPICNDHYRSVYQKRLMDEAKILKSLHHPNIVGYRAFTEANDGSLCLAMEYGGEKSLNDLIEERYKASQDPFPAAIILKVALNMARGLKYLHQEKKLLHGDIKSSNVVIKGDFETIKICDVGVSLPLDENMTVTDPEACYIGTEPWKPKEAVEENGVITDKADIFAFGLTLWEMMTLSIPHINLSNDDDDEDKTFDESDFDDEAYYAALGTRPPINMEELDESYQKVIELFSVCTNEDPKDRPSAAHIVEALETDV

[2] = biological target: T2, recombinant TOPK (Signalchem, T14-10G-10) (UniProt Q96KB5); assay: as above
T2 sequence: T1 sequence

binding [1]: binds
binding [2]: binds
Molecule: EEF1A (human (endogenous in KYSE510))

binding [1]: binds
binding [2]: binds
B1: dermcidin (protein, UniProt P81605 20-110)
chain: YDPEAASAPGSGNPCHEASAAQKENAGEDPGLARQAPKPRKQRSSLLEKGLDGAKKAVGGLGKLGKDAVEDLESVGKGAVHDVKDVLDSVL

binding [2]: binds
B2: γ-catenin (protein, UniProt P14923 1-745)
chain: MEVMNLMEQPIKVTEWQQTYTYDSGIHSGANTCVPSVSSKGIMEEDEACGRQYTLKKTTTYTQGVPPSQGDLEYQMSTTARAKRVREAMCPGVSGEDSSLLLATQVEGQATNLQRLAEPSQLLKSAIVHLINYQDDAELATRALPELTKLLNDEDPVVVTKAAMIVNQLSKKEASRRALMGSPQLVAAVVRTMQNTSDLDTARCTTSILHNLSHHREGLLAIFKSGGIPALVRMLSSPVESVLFYAITTLHNLLLYQEGAKMAVRLADGLQKMVPLLNKNNPKFLAITTDCLQLLAYGNQESKLIILANGGPQALVQIMRNYSYEKLLWTTSRVLKVLSVCPSNKPAIVEAGGMQALGKHLTSNSPRLVQNCLWTLRNLSDVATKQEGLESVLKILVNQLSVDDVNVLTCATGTLSNLTCNNSKNKTLVTQNSGVEALIHAILRAGDKDDITEPAVCALRHLTSRHPEAEMAQNSVRLNYGIPAIVKLLNQPNQWPLVKATIGLIRNLALCPANHAPLQEAAVIPRLVQLLVKAHQDAQRHVAAGTQQPYTDGVRMEEIVEGCTGALHILARDPMNRMEIFRLNTIPLFVQLLYSSVENIQRVAAGVLCELAQDKEAADAIDAEGASAPLMELLHSRNEGTATYAAAVLFRISEDKNPDYRKRVSVELTNSLFKHDPAAWEAAQSMIPINEPYGDDMDATYRPMYSSDVPLDPLEMHMDMDGDYPIDTYSDGLRPPYPTADHMLA

binding [1]: binds
binding [2]: binds
B3: plakophilin-1 (protein, UniProt Q13835 1-747)
chain: MNHSPLKTALAYECFQDQDNSTLALPSDQKMKTGTSGRQRVQEQVMMTVKRQKSKSSQSSTLSHSNRGSMYDGLADNYNYGTTSRSSYYSKFQAGNGSWGYPIYNGTLKREPDNRRFSSYSQMENWSRHYPRGSCNTTGAGSDICFMQKIKASRSEPDLYCDPRGTLRKGTLGSKGQKTTQNRYSFYSTCSGQKAIKKCPVRPPSCASKQDPVYIPPISCNKDLSFGHSRASSKICSEDIECSGLTIPKAVQYLSSQDEKYQAIGAYYIQHTCFQDESAKQQVYQLGGICKLVDLLRSPNQNVQQAAAGALRNLVFRSTTNKLETRRQNGIREAVSLLRRTGNAEIQKQLTGLLWNLSSTDELKEELIADALPVLADRVIIPFSGWCDGNSNMSREVVDPEVFFNATGCLRKRLGMRELLALVPQRATSSRVNLSSADAGRQTMRNYSGLIDSLMAYVQNCVAASRCDDKSVENCMCVLHNLSYRLDAEVPTRYRQLEYNARNAYTEKSSTGCFSNKSDKMMNNNYDCPLPEEETNPKGSGWLYHSDAIRTYLNLMGKSKKDATLEACAGALQNLTASKGLMSSGMSQLIGLKEKGLPQIARLLQSGNSDVVRSGASLLSNMSRHPLLHRVMGNQVFPEVTRLLTSHTGNTSNSEDILSSACYTVRNLMASQPQLAKQYFSSSMLNNIINLCRSSASPKAAEAARLLLSDMWSSKELQGVLRQQGFDRNMLGTLAGANSLRNFTSRF

Reference: publication PMC6937732
